The whole screen tested about 350,000 compounds, of which about 220 (0.063%) were called active. The inconclusive results got no clear call from the source; some entries with a clear call stand among them for comparison. Calls come from the whole dose curve; as a rule, active = well fitted activation curve with a large enough effect; inconclusive = small, poorly fitted or top-dose-only effect; inactive = no such curve, though single readings can be large or run the other way. Potencies of inconclusive entries are doubtful fits and often do not repeat.
Assay: qHTS for Activators of Integrin-Mediated Alleviation for Muscular Dystrophy; note: nearly all actives have a fitted effect of over 60% in size;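 for activation: 100% = response of the positive control SU9516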
Conditions: alpha7betagal myoblasts, beta-gal FDG fluorescence, 48 h; activation: at 38.3 µM (top of the series)
Text: Integrins are a diverse family of transmembrane cell surface receptors that mediate interactions between cells and the extracellular matrix. These heterodimeric proteins are composed of alpha and beta subunits and the a7b1 interacts with laminin in the extracellular matrix and actin of the cell cytoskeleton. Both chains contribute to ligand binding, but the alpha chain mediates the specificity of the interaction. The alpha7beta1 integrin is a major laminin receptor in skeletal, cardiac and vascular smooth muscle. Mutations in the alpha7 integrin gene are responsible for muscular dystrophy in both humans and mice. The alpha7beta1 integrin is also a major modifier of muscle disease progression in various muscle diseases including Duchenne muscular dystrophy, Fukuyama muscular dystrophy and merosin deficient congenital muscular dystrophy type 1A. […] Transcriptional regulation of the alpha7 integrin gene is poorly understood and probably involves multiple transcription factors. The goal of identifying small molecules that enhance alpha7 integrin expression is two-fold: firstly, such molecules would help us gain insight into the complex transcriptional control of alpha7 integrin. It is known that alpha7 integrin expression is tightly controlled during various stages of development, disease and in response to external stimuli. The second goal of the project is to translate the above finding into a therapeutic strategy for muscular dystrophy. […] Thus this project aims to discover small molecule probes that would not only help in gaining a better understanding of the complex regulatory mechanism of alpha7 integrin expression, but also lead to development of pharmacological agents to fight muscular dystrophy. NIH Chemical Genomics Center [NCGC] NIH Molecular Libraries Probe Centers Network [MLPCN] MLPCN Grant: NS058429 Assay Submitter (PI): Dean Burkin, University of Nevada School of Medicine
A total of 250 alpha7betagal+/- myoblasts at passage 13 were dispensed using a mulitdrop from Thermo into black low base tissue culture treated microclear aurora plates in 6 ul media containing DMEM without phenol, 5% FBS, 1x GluMax and 1x Penicillin/Streptomycin. The plates were incubated 16-24 hr at 37C, 5% CO2, 95% humidity covered with low evaporation stainless steel lids from Kalypsys. Compounds were then dispensed using a Kalypsys pintool to deliver 23 nl/well compounds in DMSO (diluted into 6 uL resulting in a 1:260 dilution of compound). The control compound used was the cdk2 inhibitor SU9516 from Tocirs (found in the initial LOPAC screen). The plates were incubated for 48 hours at 37C, 5% CO2, 95% humidity using the same stainless steel lids. After incubation with compound, 5 ul of the media was aspirated using the Kalypsys washer/dispenser and 3 ul of the Mammalian Protein Extraction Reagent (MPER) lysis buffer (Thermo Fisher) was added. The plates were spun at 2000 rpms to remove bubbles and an initial capture was acquired on the Viewlux (Perkin Elmer) with exciation at 480 nm and emission at 540 nm for 25 seconds to omit any auto fluorescent compounds. The plates were then incubated for 10 minutes at room temperature. After incubation, 3 ul of 125 uM Fluorescein di-galactoside (FDG) (Marker Gene Technologies) diluted in PBS with 2 mM MgCl2 and 0.2% betamercaptoethanol (BME) was added, the plates were spun at 2000 rpms and incubated for 30 minutes at room temperature. The plates were again read on the Viewlux with exciation at 480 nm and emission at 540 nm for 25 seconds.
Potency is the fitted concentration of half-maximal effect.

Structure (SMILES) | Potency | activation
O=C1c2ccccc2-c2cccnc21 | inconclusive: 22.4 µM [activator, single point] | –
CC(=O)N(c1cc(C)ccc1C)c1ccccc1[N+](=O)[O-] | – | inactive: 12.7%
Cc1c(C(=O)NC(=S)NCC(C)C)oc2ccccc12 | – | inactive: 12%
COc1ccc([N+](=O)[O-])cc1NC(=O)C(C)OC(=O)C1CCC1 (stereo not given) | inconclusive: 5.01 µM [activator, single point] | –
COc1ccc(C(=O)Nc2ccc3ccccc3n2)c(OC)c1OC | – | inactive: -15.1%
O=C(NNS(=O)(=O)c1ccc(Br)cc1)c1csnn1 | inconclusive: 28.2 µM [activator, single point] | –
COC(=O)c1cc(C(=O)OCC(=O)NNC(=O)c2cccs2)cc([N+](=O)[O-])c1 | inconclusive: 28.2 µM [activator, single point] | –
COc1ccc(-c2cn3c(C)c(C(=O)Nc4cc(NC(C)=O)ccc4OC)sc3n2)cc1 | – | inactive: 9.87%
Nc1c(C(=O)CSc2nnc(COc3ccc(Cl)cc3)o2)c(=O)[nH]c(=O)n1C1CC1 | inconclusive: 28.2 µM [activator, single point] | –
COc1ccc(/C=N/NC(=O)c2ccc(N(C)S(=O)(=O)c3ccccc3)cc2)c(OC)c1 | – | inactive: 13.4%
Cc1ccc(/C=N/n2c(-c3ccc(Cl)cc3)n[nH]c2=S)o1 | – | inactive: -3.66%
CN1CCN(c2ccc3sc(-n4ccc5ccccc54)nc3c2)CC1 | – | inactive: -7.66%
Cc1ccc(/C=N/NC(=O)c2cc(C3CC3)nc3ccccc23)o1 | – | inactive: -1.74%
CCCn1c2c(c(=N)c3c1CCC3)CCCC2 | – | inactive: -44%
CCc1ccc2[nH]c(C(=O)Nc3ccc(C)c(F)c3)cc2c1 | inconclusive: 10 µM [activator, single point] | –
CSCCC(NS(=O)(=O)c1ccccc1F)C(=O)NCC(c1ccco1)N(C)C (stereo not given) | inconclusive: 28.2 µM [activator, single point] | –
CCn1cc(Cl)c(C(=O)Nc2ccc(OC)c(OC)c2)n1 | inconclusive: 28.2 µM [activator, single point] | –
Cc1ccccc1Nc1nc(N)nc(COC(=O)c2ccc(O)cc2)n1 | – | inactive: -17.4%
COc1ccccc1CNC(=O)c1cc(S(=O)(=O)N2CCN(c3ccccc3)CC2)ccc1Cl | – | inconclusive: -47.8% [activator]
O=C(c1ccc(Cl)nc1)c1cccs1 | – | inactive: 31.3%
O=C(NC1CCCCC1)C(c1ccncc1)N(Cc1ccc(F)cc1)C(=O)c1ccccn1 (stereo not given) | inconclusive: 0.316 µM [activator, partial curve, poor fit] | –
COc1ccc(S(=O)(=O)N2CCN(C(=O)c3ccc(NC(C)=O)cc3)CC2)cc1 | inconclusive: 6.31 µM [activator, partial curve, poor fit] | –
CCOc1ccc(NC(=O)C(Cc2ccccc2)N2C(=O)c3cccc4cccc(c34)C2=O)cc1 (stereo not given) | – | inactive: -26.5%
Cc1ccc2nc(/C(C#N)=C\c3ccc(N4CCCCC4)c([N+](=O)[O-])c3)[nH]c2c1 | – | inactive: 29.6%
CCOc1c(Br)cc(CNCc2cccs2)cc1OC | inconclusive: 1.12 µM [activator, partial curve, poor fit] | –

Ordered by heavy-atom count (rising): some entries from above.
Structure (SMILES) | Potency | activation
CCc1ccc2[nH]c(C(=O)Nc3ccc(C)c(F)c3)cc2c1 | inconclusive: 10 µM [activator, single point] | –
Cc1ccc2nc(/C(C#N)=C\c3ccc(N4CCCCC4)c([N+](=O)[O-])c3)[nH]c2c1 | – | inactive: 29.6%
CCOc1ccc(NC(=O)C(Cc2ccccc2)N2C(=O)c3cccc4cccc(c34)C2=O)cc1 (stereo not given) | – | inactive: -26.5%

Continuation:

Structure (SMILES) | Potency | activation
CC1CCN(CCCOc2ccc(Cl)cc2Br)CC1 | – | inactive: -26.6%
CCOC(=O)Cn1cc(C#N)c(=O)[nH]c1=O | inconclusive: 5.01 µM [activator, single point] | –
O=C(CSCc1cccc(F)c1)NCc1ccccc1 | – | inactive: 0%
O=C(CCc1c[nH]c2ccccc12)N1CCCCCCC1 | inconclusive: 28.2 µM [activator, single point] | –
O=C(Nc1nccs1)c1cccnc1Cl | – | inactive: 33.4%
CCOc1ccc(NC(=O)COC(=O)CCN2C(=O)C3CC=CCC3C2=O)cc1OCC (stereo not given) | – | inactive: -19.4%
CC(C)CC[n+]1ccn(-c2nc3ccccc3nc2[N-]S(=O)(=O)c2ccccc2)c1 | – | inactive: -15.4%
Cn1c(=O)c2c(nc(SCC(=O)N3c4ccccc4CCc4ccccc43)n2C)n(C)c1=O | inconclusive: 2.82 µM [activator, partial curve, poor fit] | –
CCOc1cc(/C=N/NC(=O)c2ccncc2)cc(Br)c1O | – | inactive: 4.83%
Oc1nc(-c2ccc(Br)cc2)n2ccncc12 | inconclusive: 28.2 µM [activator, single point] | –
Cc1nc2cc(-c3ccsc3-n3c(C)ccc3C)[nH]n2c(=O)c1Cl | inconclusive: 28.2 µM [activator, single point] | –
c1ccc(C(c2nnnn2C2CCCCC2)N2CCc3ccccc3C2)nc1 (stereo not given) | – | inactive: -10.5%
O=C(CSC1=NCCS1)NC(c1ccccc1)c1ccccc1 | inconclusive: 8.91 µM [activator, partial curve, poor fit] | –
O=C(NCCc1cccc(Cl)c1)c1cccs1 | inconclusive: 5.01 µM [activator, single point] | –
S=C(NNc1ccc2ccccc2c1)NC1CCCCC1 | – | inactive: -52.5%
NC(=O)COc1ccccc1C1=NO[C@@](CC(=O)O)(C(=O)Nc2ccc3c(c2)OCCO3)C1 | inconclusive: 28.2 µM [activator, single point] | –
O=C(CC(C(=O)O)c1cccc(Cl)c1Cl)c1ccccc1 (stereo not given) | inconclusive: 28.2 µM [activator, single point] | –
COC(=O)C(NC(=O)c1ccccc1)C(C)(C)SCc1ccccc1 (stereo not given) | – | inactive: 14%
CCOC(=O)CC(=O)Nc1c(C)cc(C)cc1C | inconclusive: 31.6 µM [activator, partial curve, poor fit] | –
COc1cccc(-c2cccc(NC(=O)C3CCN(Cc4ccc(CO)o4)CC3)c2)c1 | inconclusive: 3.16 µM [activator, single point] | –
CS(=O)(=O)N1CCN(C(=O)Cc2ccc([N+](=O)[O-])cc2)CC1 | inconclusive: 2.51 µM [activator, single point] | –
CCOC(=O)C1CCN(C(=O)CN2C(=O)COc3ccc(C(C)(C)C)cc32)CC1 | inconclusive: 10 µM [activator, partial curve, poor fit] | –
COCCNC(=S)N/N=C(\C)c1ccccc1O | – | inactive: -61.1%
Cc1cc(C)c(OCCCCN2CCC(C)CC2)c(Br)c1 | – | inactive: -31.8%
CC(C)Cn1cnc2c(Sc3c([N+](=O)[O-])ncn3C)nc(N)nc21 | – | inactive: -26.5%

Structure (SMILES) | Potency | activation
N#CC(C#N)=C1C=CC=CN1/C(=C\c1ccco1)C(=O)c1ccc(-c2ccccc2)cc1 | – | inactive: -46.8%
O=C(O)c1ccc(S(=O)(=O)/N=C2\C=C(Nc3ccccc3F)C(=O)c3ccccc32)cc1 | – | inconclusive: -75% [activator]
COc1ccc(C(=O)CCC(=O)N2CCN(c3cc(C)ccc3C)CC2)cc1 | inconclusive: 5.01 µM [activator, single point] | –
Fc1cccc(/C=N/Nc2ccc(Cl)nn2)c1 | inconclusive: 5.01 µM [activator, single point] | –
COC(=O)C(C)Sc1nnc(-c2ccncc2)o1 (stereo not given) | inconclusive: 1.58 µM [activator, partial curve, poor fit] | –
CCOc1ccc(S(=O)(=O)N2CCNC(=O)C2)cc1 | inconclusive: 7.94 µM [activator, partial curve, poor fit] | –
CCOC(=O)C1=C(N)N2C(=O)C(C)SC2=C(C(=O)OC)C1c1cccc(OC)c1 (stereo not given) | inconclusive: 28.2 µM [activator, single point] | –
CC(=O)Nc1ccc(Sc2ncnc3scc(-c4ccccc4)c23)cc1 | – | inactive: -35.6%
CC1(C)CC(n2c(NCCO)nc3c(c2=O)C2(CCCC2)Cc2ccccc2-3)CCO1 (stereo not given) | – | inactive: 0.521%
COc1ccc(-n2nc3ccc(N)cc3n2)cc1Cl | – | inactive: 0.401%
O=C(OCc1csc(-c2ccccc2)n1)C1=NN(c2ccccc2)C(=O)CC1 | inconclusive: 0.891 µM [activator, partial curve, poor fit] | –
CCN1C(=O)c2cccc3c(S(=O)(=O)Nc4nc(C)cs4)ccc1c23 | inconclusive: 10 µM [activator, single point] | –
CN(C(=O)c1cccc(NC(=O)Cc2cccc(NC(=O)C3CCCN(C(=O)CCc4ccccc4)C3)c2)c1)C1CCC1 (stereo not given) | – | inactive: -14%
CC(Sc1nc(-c2ccc(F)cc2)cs1)C(=O)N1c2ccccc2CC1C (stereo not given) | – | inactive: 2.29%
CCOC(=O)c1sc(NC(=O)c2sccc2C)cc1C | – | inactive: -29.4%
O=C(CSc1ncn[nH]1)Nc1nc(-c2cccc([N+](=O)[O-])c2)cs1 | inconclusive: 22.4 µM [activator, single point] | –
CSCCC(NC(=O)c1ccco1)C(=O)NCC(C)(C)N1CCOCC1 (stereo not given) | inconclusive: 2.24 µM [activator, single point] | –
Cc1cc(SCC(=O)N2CCCC2=O)nc2c(C)cccc12 | – | inactive: 19.8%
O=C1CC(Sc2ncccc2C(=O)O)C(=O)N1 (stereo not given) | inconclusive: 11.2 µM [activator, partial curve] | –
Cc1ccccc1NC(=O)COC(=O)CCC(=O)c1cccs1 | inconclusive: 12.6 µM [activator, partial curve, poor fit] | –
O=C(CCNC(=O)c1ccccc1)NCCc1ccc(Cl)cc1 | inconclusive: 2.82 µM [activator, single point] | –
CCOc1ccc(S(=O)(=O)Nc2ccc(S(=O)(=O)N3CCOCC3)cc2)cc1 | inconclusive: 10 µM [activator, single point] | –
CCN1CCN(CC(=O)Nc2cc(C)on2)CC1 | inconclusive: 28.2 µM [activator, single point] | –
O=C1N[C@@H](c2ccccc2)COC(=O)[C@@H](Cc2ccc(F)cc2)CC/C=C/C[C@@H]1CC(=O)N(CCO)Cc1ccccc1 | – | inactive: -43.6%
CCN(CC)CCSc1nc(O)c(-c2ccccc2)c(=O)n1-c1ccccc1 | inconclusive: 28.2 µM [activator, single point] | –

Reference: PubChem BioAssay AID624291 (National Center for Advancing Translational Sciences (NCATS), 2012)
